# Assay results published in the supplement of paper PMC12067093, “Discovery and optimisation of a covalent ligand for TRIM25 and its application to targeted protein ubiquitination” (Chemical Science, 2025).
# Protein sequences, listed by entry. Tags and fused reporters are not part of them. Lines headed by an entry give the natural chain unless they say otherwise; changes in a name come on top.
# UniProt Q9Y263: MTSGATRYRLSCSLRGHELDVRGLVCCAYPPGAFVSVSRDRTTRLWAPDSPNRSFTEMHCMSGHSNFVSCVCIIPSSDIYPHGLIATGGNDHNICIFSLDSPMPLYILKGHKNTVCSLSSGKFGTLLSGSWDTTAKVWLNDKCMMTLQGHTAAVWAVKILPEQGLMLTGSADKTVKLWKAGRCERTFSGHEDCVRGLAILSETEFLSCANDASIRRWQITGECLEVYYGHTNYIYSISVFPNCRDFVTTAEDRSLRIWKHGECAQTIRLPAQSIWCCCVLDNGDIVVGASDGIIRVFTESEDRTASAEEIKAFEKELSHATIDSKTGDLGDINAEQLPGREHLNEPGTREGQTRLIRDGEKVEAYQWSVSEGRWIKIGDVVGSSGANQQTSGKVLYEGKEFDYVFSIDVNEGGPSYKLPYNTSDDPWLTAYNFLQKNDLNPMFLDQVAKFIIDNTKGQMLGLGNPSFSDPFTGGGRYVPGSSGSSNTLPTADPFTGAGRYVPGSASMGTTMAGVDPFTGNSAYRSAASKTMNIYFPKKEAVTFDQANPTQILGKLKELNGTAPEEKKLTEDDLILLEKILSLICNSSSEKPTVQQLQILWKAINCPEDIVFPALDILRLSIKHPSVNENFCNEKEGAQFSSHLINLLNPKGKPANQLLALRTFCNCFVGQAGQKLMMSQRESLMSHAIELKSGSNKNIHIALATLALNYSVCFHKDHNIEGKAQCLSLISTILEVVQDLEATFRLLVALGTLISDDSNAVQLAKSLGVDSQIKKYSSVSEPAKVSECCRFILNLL
# UniProt O43660: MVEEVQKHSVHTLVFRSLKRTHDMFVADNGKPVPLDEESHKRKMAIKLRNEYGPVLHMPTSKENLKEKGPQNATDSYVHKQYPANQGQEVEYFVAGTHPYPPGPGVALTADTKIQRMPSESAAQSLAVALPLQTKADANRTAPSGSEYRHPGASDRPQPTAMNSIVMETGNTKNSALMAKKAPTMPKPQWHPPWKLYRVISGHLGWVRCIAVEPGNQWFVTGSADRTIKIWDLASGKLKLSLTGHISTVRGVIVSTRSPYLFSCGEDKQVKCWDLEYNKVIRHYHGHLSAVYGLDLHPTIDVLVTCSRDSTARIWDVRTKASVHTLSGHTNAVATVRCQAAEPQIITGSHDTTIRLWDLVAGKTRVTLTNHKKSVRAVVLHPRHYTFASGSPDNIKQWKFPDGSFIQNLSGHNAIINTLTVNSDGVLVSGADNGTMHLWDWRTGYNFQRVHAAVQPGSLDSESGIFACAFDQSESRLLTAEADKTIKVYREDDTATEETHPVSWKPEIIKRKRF
# UniProt P19174: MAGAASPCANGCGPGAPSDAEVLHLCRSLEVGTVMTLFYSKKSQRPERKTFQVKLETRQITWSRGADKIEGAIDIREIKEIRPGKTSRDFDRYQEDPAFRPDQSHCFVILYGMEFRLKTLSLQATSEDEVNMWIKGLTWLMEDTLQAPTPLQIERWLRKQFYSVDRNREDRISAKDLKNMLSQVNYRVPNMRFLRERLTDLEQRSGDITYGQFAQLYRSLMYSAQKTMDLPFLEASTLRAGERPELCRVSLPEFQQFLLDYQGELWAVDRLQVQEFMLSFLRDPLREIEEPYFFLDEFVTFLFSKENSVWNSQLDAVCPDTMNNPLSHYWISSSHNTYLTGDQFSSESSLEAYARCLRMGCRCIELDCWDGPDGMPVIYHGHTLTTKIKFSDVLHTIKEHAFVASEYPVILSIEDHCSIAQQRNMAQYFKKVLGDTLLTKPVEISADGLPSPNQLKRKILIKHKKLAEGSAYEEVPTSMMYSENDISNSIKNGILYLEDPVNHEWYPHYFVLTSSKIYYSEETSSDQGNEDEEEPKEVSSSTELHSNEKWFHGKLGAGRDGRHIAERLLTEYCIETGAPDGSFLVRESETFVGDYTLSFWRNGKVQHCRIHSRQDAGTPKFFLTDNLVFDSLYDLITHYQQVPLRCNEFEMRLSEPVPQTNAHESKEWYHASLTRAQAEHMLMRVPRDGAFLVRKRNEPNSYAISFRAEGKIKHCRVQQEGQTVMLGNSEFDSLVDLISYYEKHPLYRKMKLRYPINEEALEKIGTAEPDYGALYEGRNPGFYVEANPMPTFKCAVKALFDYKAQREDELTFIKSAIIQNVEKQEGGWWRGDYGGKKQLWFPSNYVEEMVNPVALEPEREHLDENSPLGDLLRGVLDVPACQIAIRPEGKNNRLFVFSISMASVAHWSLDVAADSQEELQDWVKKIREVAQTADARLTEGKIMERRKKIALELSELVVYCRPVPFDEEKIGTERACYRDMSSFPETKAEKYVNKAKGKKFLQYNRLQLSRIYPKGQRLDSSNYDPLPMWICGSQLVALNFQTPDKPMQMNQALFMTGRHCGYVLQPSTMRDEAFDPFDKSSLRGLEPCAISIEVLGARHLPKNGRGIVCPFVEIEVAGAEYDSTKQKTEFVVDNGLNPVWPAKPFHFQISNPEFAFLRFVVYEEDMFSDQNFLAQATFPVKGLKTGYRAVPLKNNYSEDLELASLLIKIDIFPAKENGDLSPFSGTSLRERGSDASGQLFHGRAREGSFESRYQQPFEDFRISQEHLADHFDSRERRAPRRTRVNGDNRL
# UniProt Q15126: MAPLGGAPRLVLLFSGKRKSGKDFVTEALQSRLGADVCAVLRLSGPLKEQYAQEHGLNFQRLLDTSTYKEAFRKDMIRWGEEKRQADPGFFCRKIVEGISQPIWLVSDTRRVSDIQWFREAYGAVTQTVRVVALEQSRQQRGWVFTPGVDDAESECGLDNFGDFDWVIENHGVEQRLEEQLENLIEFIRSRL
# UniProt Q9HB19: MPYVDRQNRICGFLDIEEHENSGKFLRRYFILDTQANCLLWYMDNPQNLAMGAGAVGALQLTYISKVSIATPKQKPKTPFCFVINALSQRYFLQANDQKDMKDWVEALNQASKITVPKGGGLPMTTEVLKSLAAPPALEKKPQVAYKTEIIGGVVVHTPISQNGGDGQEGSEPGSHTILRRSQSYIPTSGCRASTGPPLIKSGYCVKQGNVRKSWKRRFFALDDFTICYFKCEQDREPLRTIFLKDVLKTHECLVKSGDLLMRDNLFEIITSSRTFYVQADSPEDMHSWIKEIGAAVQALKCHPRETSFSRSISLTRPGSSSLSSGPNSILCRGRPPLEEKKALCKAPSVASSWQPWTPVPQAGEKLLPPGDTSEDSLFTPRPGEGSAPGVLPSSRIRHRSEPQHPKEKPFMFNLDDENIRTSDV
# UniProt Q16512: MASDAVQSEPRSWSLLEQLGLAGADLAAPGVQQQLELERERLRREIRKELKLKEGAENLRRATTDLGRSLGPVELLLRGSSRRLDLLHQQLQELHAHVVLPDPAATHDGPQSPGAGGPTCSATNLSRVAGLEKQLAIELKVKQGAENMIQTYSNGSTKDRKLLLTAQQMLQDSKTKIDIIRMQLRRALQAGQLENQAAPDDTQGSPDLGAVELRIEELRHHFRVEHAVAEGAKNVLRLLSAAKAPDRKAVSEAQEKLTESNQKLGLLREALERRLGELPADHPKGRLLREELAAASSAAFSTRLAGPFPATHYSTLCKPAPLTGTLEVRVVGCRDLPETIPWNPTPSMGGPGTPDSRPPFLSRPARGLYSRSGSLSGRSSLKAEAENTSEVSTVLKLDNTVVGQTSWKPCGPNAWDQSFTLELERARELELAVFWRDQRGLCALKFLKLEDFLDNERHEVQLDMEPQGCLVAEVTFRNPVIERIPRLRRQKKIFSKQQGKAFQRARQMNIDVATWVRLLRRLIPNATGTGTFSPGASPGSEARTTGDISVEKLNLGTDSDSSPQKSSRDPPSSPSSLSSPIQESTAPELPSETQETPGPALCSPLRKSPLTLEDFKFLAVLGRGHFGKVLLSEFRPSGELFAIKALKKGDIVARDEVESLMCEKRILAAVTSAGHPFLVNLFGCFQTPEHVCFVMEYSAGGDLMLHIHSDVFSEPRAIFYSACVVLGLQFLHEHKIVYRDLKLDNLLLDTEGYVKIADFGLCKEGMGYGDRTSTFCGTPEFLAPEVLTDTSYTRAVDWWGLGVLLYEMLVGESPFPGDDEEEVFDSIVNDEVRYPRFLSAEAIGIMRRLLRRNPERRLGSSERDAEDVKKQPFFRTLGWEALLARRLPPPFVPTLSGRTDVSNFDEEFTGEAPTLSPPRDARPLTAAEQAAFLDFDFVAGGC
# UniProt Q03405, whole entry, looked up: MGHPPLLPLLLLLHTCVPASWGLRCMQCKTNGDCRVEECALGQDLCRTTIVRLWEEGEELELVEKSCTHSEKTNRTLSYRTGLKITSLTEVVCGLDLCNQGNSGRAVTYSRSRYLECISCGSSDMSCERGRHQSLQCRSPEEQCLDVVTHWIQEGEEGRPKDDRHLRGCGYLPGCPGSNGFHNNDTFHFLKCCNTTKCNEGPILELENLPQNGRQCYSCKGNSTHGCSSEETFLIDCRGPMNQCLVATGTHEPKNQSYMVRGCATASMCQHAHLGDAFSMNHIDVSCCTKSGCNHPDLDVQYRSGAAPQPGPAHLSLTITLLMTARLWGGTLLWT
# UniProt P27986, whole entry, looked up: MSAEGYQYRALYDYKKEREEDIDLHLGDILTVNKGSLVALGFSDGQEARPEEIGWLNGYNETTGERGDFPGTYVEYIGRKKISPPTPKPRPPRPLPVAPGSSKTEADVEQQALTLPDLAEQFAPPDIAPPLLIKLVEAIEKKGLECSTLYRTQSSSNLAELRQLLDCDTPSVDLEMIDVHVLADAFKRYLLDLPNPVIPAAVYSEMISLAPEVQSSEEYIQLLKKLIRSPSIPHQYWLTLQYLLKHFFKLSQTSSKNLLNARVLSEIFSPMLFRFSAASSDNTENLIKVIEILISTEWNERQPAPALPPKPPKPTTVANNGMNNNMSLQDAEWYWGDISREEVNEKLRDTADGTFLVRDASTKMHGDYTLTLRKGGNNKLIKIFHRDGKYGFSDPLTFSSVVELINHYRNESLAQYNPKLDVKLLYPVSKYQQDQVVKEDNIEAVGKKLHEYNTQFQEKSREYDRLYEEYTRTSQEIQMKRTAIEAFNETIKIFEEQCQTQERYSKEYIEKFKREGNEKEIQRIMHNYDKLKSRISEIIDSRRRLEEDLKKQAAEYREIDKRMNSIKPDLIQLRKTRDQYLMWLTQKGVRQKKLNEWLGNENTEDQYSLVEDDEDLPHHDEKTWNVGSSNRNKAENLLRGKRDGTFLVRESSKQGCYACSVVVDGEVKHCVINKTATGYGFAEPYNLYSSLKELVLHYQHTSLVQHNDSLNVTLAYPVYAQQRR
# UniProt P16885: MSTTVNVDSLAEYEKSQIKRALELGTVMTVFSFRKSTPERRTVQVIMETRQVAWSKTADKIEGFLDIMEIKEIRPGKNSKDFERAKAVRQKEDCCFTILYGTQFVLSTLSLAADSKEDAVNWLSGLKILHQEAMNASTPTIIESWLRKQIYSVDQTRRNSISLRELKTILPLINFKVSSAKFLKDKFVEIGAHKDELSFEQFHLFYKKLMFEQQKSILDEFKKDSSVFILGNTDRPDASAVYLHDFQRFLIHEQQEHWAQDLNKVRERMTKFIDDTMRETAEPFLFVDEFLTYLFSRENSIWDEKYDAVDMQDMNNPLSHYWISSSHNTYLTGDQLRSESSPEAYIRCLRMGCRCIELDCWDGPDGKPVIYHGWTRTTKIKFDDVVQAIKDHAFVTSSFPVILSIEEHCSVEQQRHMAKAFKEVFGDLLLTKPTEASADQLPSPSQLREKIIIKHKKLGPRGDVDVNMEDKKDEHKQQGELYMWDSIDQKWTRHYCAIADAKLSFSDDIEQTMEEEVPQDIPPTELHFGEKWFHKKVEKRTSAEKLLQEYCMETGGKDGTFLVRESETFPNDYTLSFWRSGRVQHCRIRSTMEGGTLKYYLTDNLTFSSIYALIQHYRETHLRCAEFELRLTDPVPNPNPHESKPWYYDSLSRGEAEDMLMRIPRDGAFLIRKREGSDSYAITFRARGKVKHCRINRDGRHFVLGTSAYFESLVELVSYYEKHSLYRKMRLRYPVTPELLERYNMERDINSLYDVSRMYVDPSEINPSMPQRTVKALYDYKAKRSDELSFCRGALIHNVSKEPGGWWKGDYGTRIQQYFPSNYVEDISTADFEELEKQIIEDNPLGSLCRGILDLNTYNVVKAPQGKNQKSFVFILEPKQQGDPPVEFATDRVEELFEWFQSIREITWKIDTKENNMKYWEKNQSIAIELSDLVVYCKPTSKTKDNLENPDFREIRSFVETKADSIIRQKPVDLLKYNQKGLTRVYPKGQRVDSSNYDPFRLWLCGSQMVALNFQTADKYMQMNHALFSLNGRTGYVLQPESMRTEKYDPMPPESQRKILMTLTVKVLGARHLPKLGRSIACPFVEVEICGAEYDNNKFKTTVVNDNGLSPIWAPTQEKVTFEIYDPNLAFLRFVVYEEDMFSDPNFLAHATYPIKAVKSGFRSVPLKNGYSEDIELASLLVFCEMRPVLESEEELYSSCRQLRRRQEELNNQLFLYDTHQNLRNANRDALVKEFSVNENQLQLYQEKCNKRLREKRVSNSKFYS
# Some of the results follow.
# Compound: Cc1cc(ccc1-c1ccccc1)C(=O)N1CCCN(CC1)C(=O)CCl [compound 10]
# Experiment: probe-labelled cysteine peptide fold change vs DMSO (competition) (log2 fold change); higher = less target engagement (more negative = stronger competition)
# Conditions: THP-1, incubation time: 4 h
# 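Further: competitive profiling in live THP-1 cells: cysteine peptides tagged with an iodoacetamide desthiobiotin (IA-DTB) probe, intensity after compound treatment relative to DMSO-treated cells.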
Target,probe-labelled cysteine peptide fold change (10 µM),probe-labelled cysteine peptide fold change (50 µM)
PKM_P14618_326_AGKPVICATQMLESMIK (UniProt P14618),-0.212,-0.151
PLEC_Q15149_4254_CITDPQTGLCLLPLK (UniProt Q15149),0.675,0.506
PLBD2_Q8NHP8_342_GCVLEWVR (UniProt Q8NHP8),-0.405,0.105
PLXNB2_O15031_1504+1506_GQPCSCWPRPDSVVLEWRPGSTAQILSDLDLTSQR (UniProt O15031),-0.0809,-0.762
PLEKHO2_Q8TD55_59_CVETVELGSYEK (UniProt Q8TD55),-0.241,-0.137
PLIN3_O60664_341_DIAQQLQATCTSLGSSIQGLPTNVK (UniProt O60664),0.208,-0.0769
PKM_P14618_423_CCSGAIIVLTK (UniProt P14618),-0.268,-0.801
PMPCA_Q10713_140+142_HGGICDCQTSR (UniProt Q10713),0.0675,-0.831
PLAA_Q9Y263_193_TFSGHEDCVR (UniProt Q9Y263),-0.0329,-0.164
PLAA_Q9Y263_666_TFCNCFVGQAGQK (UniProt Q9Y263),0.0737,-0.113
PNKP_Q96T60_437_YVQCAR (UniProt Q96T60),0.0801,-0.0414
PLRG1_O43660_338_CQAAEPQIITGSHDTTIR (UniProt O43660),-0.149,0.441
PML_P29590_140+143_ESADFWCFECEQLLCAK (UniProt P29590),0.0944,-0.116
PLRG1_O43660_468_VHAAVQPGSLDSESGIFACAFDQSESR (UniProt O43660),0.205,0.49
PLCB3_Q01970_360_CVELDVWK (UniProt Q01970),0.0505,-0.317
PNKP_Q96T60_447_CFLFTATLEQAR (UniProt Q96T60),-0.0588,-0.12
PLCG1_P19174_12_AGAASPCANGCGPGAPSDAEVLHLCR (UniProt P19174),-0.394,-0.544
PLPBP_O94903_261_CAADVK (UniProt O94903),-0.275,-0.287
PMVK_Q15126_92_RQADPGFFCR (UniProt Q15126),-0.0632,-0.151
PKN2_Q16513_394_TDDLSNDVCAVLK (UniProt Q16513),-0.165,0.0498
PMPCB_O75439_389_LCTSVTESEVAR (UniProt O75439),0.229,0.168
PLCG1_P19174_646_CNEFEMR (UniProt P19174),-0.125,-0.465

Target,probe-labelled cysteine peptide fold change (10 µM),probe-labelled cysteine peptide fold change (50 µM)
PINX1_Q96BK5_145_SKTDLDCIFGK (UniProt Q96BK5),-0.232,-0.582
PLG_P00747_398_KCQSWSSMTPHR (UniProt P00747),-0.213,-0.484
PIK3R4_Q99570_1011_VSDEHSLFATCSNDGTVK (UniProt Q99570),0.159,0.183
PIKFYVE_Q9Y2I7_831_TLMFFEGCPQHLGCTIK (UniProt Q9Y2I7),0.000926,-0.183
PLEC_Q15149_3821_EALEAESAWCYLYGTGSVAGVYLPGSR (UniProt Q15149),-0.046,0.134
PITPNM1_O00562_889_ERPQLAECEEPSIYSPAFPR (UniProt O00562),-0.0268,0.0522
PMPCB_O75439_265_FHFGDSLCTHK (UniProt O75439),-0.178,-0.289
PLEKHA2_Q9HB19_81_TPFCFVINALSQR (UniProt Q9HB19),0.0526,0.0817
PIKFYVE_Q9Y2I7_807_MTQGDLVMSMDQLLTKPHLGTCHK (UniProt Q9Y2I7),-0.034,-0.209
PITPNB_P48739_94_AWNAYPYCR (UniProt P48739),0.0131,0.0528
PKM_P14618_31_PHSEAGTAFIQTQQLHAAMADTFLEHMCR (UniProt P14618),0.0837,0.0247
PLCB2_Q00722_216_SFLMSLCPRPEIDEIFTSYHAK (UniProt Q00722),0.181,-0.0219
PLOD2_O00469_576_ACDELVEEMEHYGK (UniProt O00469),-0.195,0.0423
PLEKHA2_Q9HB19_191_SQSYIPTSGCR (UniProt Q9HB19),-0.199,-1.02
PML_P29590_151_CFEAHQWFLK (UniProt P29590),-0.0418,-0.379
PLIN2_Q99541_302_SIGYDDTDESHCAEHIESR (UniProt Q99541),-0.00068,-0.468
PML_P29590_338_CYASDQEVLDMHGFLR (UniProt P29590),-0.137,-0.0376
PNKD_Q8N490_329_KGTCPSTLGEER (UniProt Q8N490),-0.157,0.0597
PLAA_Q9Y263_143_CMMTLQGHTAAVWAVK (UniProt Q9Y263),-0.0439,0.155
PKN1_Q16512_442_GLCALK (UniProt Q16512),0.0772,0.0488
PLS3_P13797_167_AVGDGIVLCK (UniProt P13797),0.0926,-0.0651
PLAUR_Q03405_144_SPEEQCLDVVTHWIQEGEEGRPK (UniProt Q03405),0.0417,-0.0586

Target,probe-labelled cysteine peptide fold change (10 µM),probe-labelled cysteine peptide fold change (50 µM)
PLEK_P08567_102_CIEGGQK (UniProt P08567),-0.12,-0.00998
PLEC_Q15149_545_LQMEAGLCEEQLNQADALLQSDVR (UniProt Q15149),-0.0261,0.0475
PMPCB_O75439_419_TNMLLQLDGSTPICEDIGR (UniProt O75439),-0.102,0.164
PMS1_P54277_725_DEPCLIHNLR (UniProt P54277),-0.316,-0.756
PKM_P14618_424_CCSGAIIVLTK (UniProt P14618),-0.194,-0.585
PIK3R1_P27986_167_QLLDCDTPSVDLEMIDVHVLADAFKR (UniProt P27986),0.0273,0.0689
PIK3R4_Q99570_759_NGSLPDCPPPEDPAIAQLLK (UniProt Q99570),-0.172,-0.018
PIK3R4_Q99570_1097_ILDQKEDGCVVDMHHFNSGAQSVLAYATVNGSLVGWDLR (UniProt Q99570),0.126,0.0722
PIP4P1_Q86T03_177_VICGHCK (UniProt Q86T03),0.0769,-0.0325
PLA2G15_Q8NCC3_65_LDKPTVVHYLCSK (UniProt Q8NCC3),-0.0203,0.549
PNP_P00491_31_HRPQVAIICGSGLGGLTDKLTQAQIFDYGEIPNFPR (UniProt P00491),-0.185,-0.437
PLCG2_P16885_849_QIIEDNPLGSLCR (UniProt P16885),0.158,0.00581
PMVK_Q15126_38_LGADVCAVLR (UniProt Q15126),-0.0805,0.0155
PLCG2_P16885_791_RSDELSFCR (UniProt P16885),-0.13,0.0319
PLCG1_P19174_247_AGERPELCR (UniProt P19174),-0.173,-0.0224
PLEC_Q15149_3336_CRPDQLTGLSLLPLSEK (UniProt Q15149),-0.196,-0.0466
PLEC_Q15149_3493_TLLQGSGCLAGIYLEDTK (UniProt Q15149),0.242,0.398
PLEKHA3_Q9HB20_216_SVSHPGSCSSER (UniProt Q9HB20),-0.0736,-0.638
PLEC_Q15149_3110_LCFEGLR (UniProt Q15149),-0.0802,0.172
PIK3R1_P27986_498_IFEEQCQTQER (UniProt P27986),-0.0182,0.0754
PLXDC2_Q6UX71_529_EGFIVSEQC (UniProt Q6UX71),-0.169,0.0727
PML_P29590_479+484_CSQTQCPR (UniProt P29590),-0.494,-1.17

Target,probe-labelled cysteine peptide fold change (10 µM),probe-labelled cysteine peptide fold change (50 µM)
PITHD1_Q9GZP4_42_LQCLNESR (UniProt Q9GZP4),-0.143,-0.0881
PLK1_P53350_405_QEEAEDPACIPIFWVSK (UniProt P53350),0.00966,0.0835
PLSCR1_O15162_254_SLDEQCVVGK (UniProt O15162),0.0443,0.0858
PNPT1_Q8TCS8_242_SQIVMLEASAENILQQDFCHAIK (UniProt Q8TCS8),0.00909,0.0201
PLIN3_O60664_60_TVCDAAEK (UniProt O60664),0.0803,-0.266
PLAUR_Q03405_98_ITSLTEVVCGLDLCNQGNSGR (UniProt Q03405),-0.279,-0.355
PLOD3_O60568_698_FLRYDCVISSPR (UniProt O60568),0.103,-0.168
PNO1_Q9NRX1_226_TAICNLILGNPPSK (UniProt Q9NRX1),0.0956,-0.0122
PLAA_Q9Y263_278_LPAQSIWCCCVLDNGDIVVGASDGIIR (UniProt Q9Y263),0.0366,0.0256
PLEKHA2_Q9HB19_228_FFALDDFTICYFK (UniProt Q9HB19),0.385,0.142
PLBD2_Q8NHP8_492_YNDFLHDPLSLCK (UniProt Q8NHP8),0.0964,-0.267
PLCG2_P16885_1090_SIACPFVEVEICGAEYDNNK (UniProt P16885),-0.173,-0.187
PLEC_Q15149_3299_GCLDEETSR (UniProt Q15149),-0.283,-0.509
PLOD1_Q02809_369_NMGADLCR (UniProt Q02809),0.108,-0.0906
PIK3CG_P48736_817_CADPTALSNETIGIIFK (UniProt P48736),0.0584,0.0673
PM20D2_Q8IYS1_303_AAALASGCTVEIK (UniProt Q8IYS1),0.0905,0.222
PIP5K1C_O60331_306_DCLVLESFK (UniProt O60331),-0.116,-0.134
PKN1_Q16512_662_DEVESLMCEK (UniProt Q16512),0.0527,0.194
PNPT1_Q8TCS8_395_GQTQVLCTVTFDSLESGIK (UniProt Q8TCS8),0.148,0.502

# Reformatted with bars between the fields: part of the list above
Target | probe-labelled cysteine peptide fold change (10 µM) | probe-labelled cysteine peptide fold change (50 µM)
PLEKHA2_Q9HB19_228_FFALDDFTICYFK (UniProt Q9HB19) | 0.385 | 0.142
PLBD2_Q8NHP8_492_YNDFLHDPLSLCK (UniProt Q8NHP8) | 0.0964 | -0.267
PLCG2_P16885_1090_SIACPFVEVEICGAEYDNNK (UniProt P16885) | -0.173 | -0.187
PLEC_Q15149_3299_GCLDEETSR (UniProt Q15149) | -0.283 | -0.509
